{"source": "ChEMBL document CHEMBL4513142", "about": "“CO-ADD screening of Indiana University - Purdue University Indianapolis (USA) compounds”", "system": "Acinetobacter baumannii", "settings": "Concentration 32 ug.mL-1, ASSAY_TEST Inhibition of Bacterial Growth, detection method Absorption (OD600), MEDIA CAMHB, plate type 384well, NBS, CORNING #3640, time 18 hr", "note": "“And” between values parts separate entries of the source, which are not always exact repeats. Equal values may be shown once. The list shows a part of the results. Results with a measured potency or affinity are listed apart.", "data": [{"smiles": "[C-]#[N+]c1ccc(C(=O)NC(Cc2ccc(F)cc2)C(=O)NCCC)cc1", "note": "(stereo not given)", "values": [{"measurement": "Inhibition", "value": -0.32, "unit": "%"}]}, {"smiles": "CCCNC(=O)C(Cc1ccccc1)NC(=O)c1ccc(F)cc1", "note": "(stereo not given)", "values": [{"measurement": "Inhibition", "value": 1.98, "unit": "%"}]}, {"smiles": "Cc1ccc(C(=O)NC(Cc2ccc(F)cc2)C(=O)O)cc1", "note": "(stereo not given)", "values": [{"measurement": "Inhibition", "setting": "32 ug/mL", "value": "1.91% and -2.89%"}]}, {"smiles": "COc1cc(C(=O)N[C@@H](CC(C)C)C(=O)O)ccc1O", "values": [{"measurement": "Inhibition", "setting": "32 ug/mL", "value": "0.13% and -2.3%"}]}, {"smiles": "CC(C)C[C@H](NC(=O)c1cccnc1)C(N)=O", "values": [{"measurement": "Inhibition", "setting": "32 ug/mL", "value": "6.61% and -0.77%"}]}, {"smiles": "CCCNC(=O)C(Cc1ccc(F)cc1)NC(=O)c1ccccc1", "note": "(stereo not given)", "values": [{"measurement": "Inhibition", "value": -1.48, "unit": "%"}]}, {"smiles": "[C-]#[N+]c1ccc(C(=O)NC(CC#C)C(=O)NCCC)cc1", "note": "(stereo not given)", "values": [{"measurement": "Inhibition", "value": 9.9, "unit": "%"}]}, {"smiles": "CCCNC(=O)C(Cc1ccccc1C)NC(=O)c1ccc(C(F)(F)F)cc1", "note": "(stereo not given)", "values": [{"measurement": "Inhibition", "value": -1.3, "unit": "%"}]}, {"smiles": "NC(Cc1ccccc1F)C(=O)O.O=C(O)C(F)(F)F", "note": "(stereo not given)", "values": [{"measurement": "Inhibition", "setting": "32 ug/mL", "value": "-11.5% and -13.26%"}]}, {"smiles": "NC(=O)[C@H](Cc1ccccc1)NC(=O)c1c(F)c(F)c(F)c(F)c1F", "values": [{"measurement": "Inhibition", "setting": "32 ug/mL", "value": "4.52% and 4%"}]}, {"smiles": "[C-]#[N+]c1ccc(C(=O)NC(Cc2ccccc2F)C(=O)NCCC)cc1", "note": "(stereo not given)", "values": [{"measurement": "Inhibition", "value": 0.53, "unit": "%"}]}, {"smiles": "[C-]#[N+]c1ccc(C(=O)NC(CC)C(=O)NCCC)cc1", "note": "(stereo not given)", "values": [{"measurement": "Inhibition", "value": 2.58, "unit": "%"}]}, {"smiles": "O=C(N[C@@H](Cc1ccccc1)C(=O)O)C1CCCCC1", "values": [{"measurement": "Inhibition", "setting": "32 ug/mL", "value": "-3.27% and -3.11%"}]}, {"smiles": "O=C(Cc1cccc(Br)c1)N[C@@H](Cc1ccccc1)C(=O)O", "values": [{"measurement": "Inhibition", "setting": "32 ug/mL", "value": "6.45% and 4.92%"}]}, {"smiles": "NC(Cc1ccccc1I)C(=O)O.O=C(O)C(F)(F)F", "note": "(stereo not given)", "values": [{"measurement": "Inhibition", "setting": "32 ug/mL", "value": "-9.72% and 9.62%"}]}, {"smiles": "C[C@H](NC(=O)c1ccccc1Cl)C(=O)O", "values": [{"measurement": "Inhibition", "setting": "32 ug/mL", "value": "5.48% and 7.71%"}]}, {"smiles": "CCCNC(=O)C(Cc1ccccc1)NC(=O)Cc1ccccc1", "note": "(stereo not given)", "values": [{"measurement": "Inhibition", "value": 2.92, "unit": "%"}]}, {"smiles": "[C-]#[N+]c1ccc(C(=O)NC(Cc2ccc(C(F)(F)F)cc2)C(=O)NCCC)cc1", "note": "(stereo not given)", "values": [{"measurement": "Inhibition", "value": 2.43, "unit": "%"}]}, {"smiles": "CC(C)C[C@H](NC(=O)c1ccc(Cl)cc1Cl)C(N)=O", "values": [{"measurement": "Inhibition", "setting": "32 ug/mL", "value": "2.3% and 0.99%"}]}, {"smiles": "NC(Cc1ccc(F)cc1)C(=O)O.O=C(O)C(F)(F)F", "note": "(stereo not given)", "values": [{"measurement": "Inhibition", "setting": "32 ug/mL", "value": "-4.86% and 3.33%"}]}, {"smiles": "O=C(NC(CCCc1ccccc1)C(=O)O)c1cccc2ccccc12", "note": "(stereo not given)", "values": [{"measurement": "Inhibition", "setting": "32 ug/mL", "value": "10.36% and 5.75%"}]}, {"smiles": "NC(Cc1cccc(F)c1)C(=O)O.O=C(O)C(F)(F)F", "note": "(stereo not given)", "values": [{"measurement": "Inhibition", "setting": "32 ug/mL", "value": "-11.31% and -1.48%"}]}, {"smiles": "NC(=O)[C@H](Cc1ccccc1)NC(=O)c1cccnc1", "values": [{"measurement": "Inhibition", "setting": "32 ug/mL", "value": "4.48% and 5.48%"}]}, {"smiles": "O=C(NC(Cc1ccc(Cl)nc1)C(=O)O)c1ccccc1", "note": "(stereo not given)", "values": [{"measurement": "Inhibition", "setting": "32 ug/mL", "value": "10.2% and 15.94%"}]}, {"smiles": "[C-]#[N+]c1ccc(C(=O)NC(CC=C)C(=O)NCCC)cc1", "note": "(stereo not given)", "values": [{"measurement": "Inhibition", "value": 5.4, "unit": "%"}]}, {"smiles": "CC(C)[C@H](NC(=O)c1cccc(C(F)(F)F)c1)C(=O)O", "values": [{"measurement": "Inhibition", "setting": "32 ug/mL", "value": "4.73% and -4.41%"}]}, {"smiles": "Cc1ccc(C(=O)NC(Cc2ccccc2C#N)C(=O)O)cc1", "note": "(stereo not given)", "values": [{"measurement": "Inhibition", "setting": "32 ug/mL", "value": "10.77% and 9.29%"}]}, {"smiles": "Cc1ccc(C(=O)NC(Cc2cc(F)c(F)cc2F)C(=O)O)cc1", "note": "(stereo not given)", "values": [{"measurement": "Inhibition", "setting": "32 ug/mL", "value": "2.25% and 9.27%"}]}, {"smiles": "NC(Cc1ccc(F)c(F)c1)C(=O)O.O=C(O)C(F)(F)F", "note": "(stereo not given)", "values": [{"measurement": "Inhibition", "setting": "32 ug/mL", "value": "-14.03% and 0.17%"}]}, {"smiles": "NC(=O)[C@@H]1CCCN1C(=O)c1ccccn1", "values": [{"measurement": "Inhibition", "setting": "32 ug/mL", "value": "0.96% and 7.63%"}]}]}
